According to publication PMC5874249:
Results are given in words; binding and its absence hold for the method and conditions named. In cells and extracts the contact can be indirect. Some binding calls cover weakened binding; strength is not graded here.

The chains behind the UniProt entries cited, without tags or fusion partners. Where a name states a change or a piece, a line headed by the entry shows the natural chain unless it says otherwise. A line that says so, or that is headed by a name, gives the form on record, which may keep a tag or linker.
Full-length NTAP–GSK3β (P49841, form named): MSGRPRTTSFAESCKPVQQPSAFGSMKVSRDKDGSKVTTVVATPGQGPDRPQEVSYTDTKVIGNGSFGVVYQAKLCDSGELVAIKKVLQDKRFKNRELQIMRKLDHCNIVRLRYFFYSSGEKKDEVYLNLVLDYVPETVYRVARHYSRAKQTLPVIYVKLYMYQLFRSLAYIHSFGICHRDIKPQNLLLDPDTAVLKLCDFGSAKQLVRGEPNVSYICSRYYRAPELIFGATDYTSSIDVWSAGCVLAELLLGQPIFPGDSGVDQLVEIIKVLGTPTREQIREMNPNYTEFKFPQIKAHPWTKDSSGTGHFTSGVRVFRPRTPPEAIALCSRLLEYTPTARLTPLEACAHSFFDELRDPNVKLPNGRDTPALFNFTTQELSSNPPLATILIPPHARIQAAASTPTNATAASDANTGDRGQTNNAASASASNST

Target: Full-length NTAP–GSK3β (UniProt P49841)
Assay: pull-down; NTAP–GSK3β constructs co-transfected with Flag–LSD1 constructs in 293 cells, precipitated with streptavidin beads/resin, Western blot with anti-Flag, anti-STIP1, anti-HSP90 and anti-CBP; lysis buffer 20 mM Tris-Cl pH 7.4, 25 mM NaCl, 0.1% NP-40

endogenous STIP1 (from UniProt P31948 1-543)
binding: binds
